Some of the results follow. The data scatter; read single values as rough.

The chains behind the UniProt entries cited, without tags or fusion partners. Where a name states a change or a piece, a line headed by the entry shows the natural chain unless it says otherwise. Residues count along the entry.
UniProt Q96CN5: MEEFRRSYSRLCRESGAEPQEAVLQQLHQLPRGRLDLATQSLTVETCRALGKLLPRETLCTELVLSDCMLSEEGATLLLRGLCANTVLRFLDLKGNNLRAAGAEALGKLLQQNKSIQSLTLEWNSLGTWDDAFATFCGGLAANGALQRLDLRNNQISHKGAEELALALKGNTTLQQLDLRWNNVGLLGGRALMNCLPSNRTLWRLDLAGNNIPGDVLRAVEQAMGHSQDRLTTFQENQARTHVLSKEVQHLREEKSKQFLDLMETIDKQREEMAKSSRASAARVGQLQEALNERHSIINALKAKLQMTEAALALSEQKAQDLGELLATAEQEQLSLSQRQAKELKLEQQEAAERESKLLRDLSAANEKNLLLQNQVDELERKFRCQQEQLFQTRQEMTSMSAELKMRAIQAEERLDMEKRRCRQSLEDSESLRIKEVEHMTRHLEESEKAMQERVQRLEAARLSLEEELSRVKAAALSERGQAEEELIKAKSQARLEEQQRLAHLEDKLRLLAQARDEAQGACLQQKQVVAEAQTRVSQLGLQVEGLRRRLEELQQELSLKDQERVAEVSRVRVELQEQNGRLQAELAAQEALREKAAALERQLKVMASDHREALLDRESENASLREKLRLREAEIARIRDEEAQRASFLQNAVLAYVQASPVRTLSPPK
UniProt Q9NS73: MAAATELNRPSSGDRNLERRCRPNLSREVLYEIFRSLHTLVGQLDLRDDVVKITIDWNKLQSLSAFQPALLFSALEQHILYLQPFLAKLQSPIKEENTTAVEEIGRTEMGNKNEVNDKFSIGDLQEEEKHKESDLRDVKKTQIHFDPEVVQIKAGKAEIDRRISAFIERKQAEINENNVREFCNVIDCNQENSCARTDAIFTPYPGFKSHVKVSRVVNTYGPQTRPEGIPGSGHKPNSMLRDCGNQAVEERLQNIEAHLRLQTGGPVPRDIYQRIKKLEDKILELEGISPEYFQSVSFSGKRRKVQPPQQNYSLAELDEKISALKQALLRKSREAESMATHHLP
UniProt Q6ZWT7: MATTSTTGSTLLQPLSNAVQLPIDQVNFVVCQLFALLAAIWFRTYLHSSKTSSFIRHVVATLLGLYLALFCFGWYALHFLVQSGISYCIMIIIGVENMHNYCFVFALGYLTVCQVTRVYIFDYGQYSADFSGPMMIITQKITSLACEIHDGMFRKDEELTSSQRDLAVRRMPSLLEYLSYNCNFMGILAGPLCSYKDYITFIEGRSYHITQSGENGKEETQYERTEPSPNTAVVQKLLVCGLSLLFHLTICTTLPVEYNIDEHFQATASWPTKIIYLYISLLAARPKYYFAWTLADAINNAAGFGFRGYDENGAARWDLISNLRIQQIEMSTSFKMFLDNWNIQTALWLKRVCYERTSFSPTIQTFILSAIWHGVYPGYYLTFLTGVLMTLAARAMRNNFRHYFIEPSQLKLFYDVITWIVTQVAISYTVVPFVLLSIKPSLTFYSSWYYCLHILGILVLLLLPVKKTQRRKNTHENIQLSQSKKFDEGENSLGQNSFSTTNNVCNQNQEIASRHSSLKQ
UniProt Q96GX5, 297-322: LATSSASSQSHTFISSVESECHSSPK
UniProt Q9Y6R4: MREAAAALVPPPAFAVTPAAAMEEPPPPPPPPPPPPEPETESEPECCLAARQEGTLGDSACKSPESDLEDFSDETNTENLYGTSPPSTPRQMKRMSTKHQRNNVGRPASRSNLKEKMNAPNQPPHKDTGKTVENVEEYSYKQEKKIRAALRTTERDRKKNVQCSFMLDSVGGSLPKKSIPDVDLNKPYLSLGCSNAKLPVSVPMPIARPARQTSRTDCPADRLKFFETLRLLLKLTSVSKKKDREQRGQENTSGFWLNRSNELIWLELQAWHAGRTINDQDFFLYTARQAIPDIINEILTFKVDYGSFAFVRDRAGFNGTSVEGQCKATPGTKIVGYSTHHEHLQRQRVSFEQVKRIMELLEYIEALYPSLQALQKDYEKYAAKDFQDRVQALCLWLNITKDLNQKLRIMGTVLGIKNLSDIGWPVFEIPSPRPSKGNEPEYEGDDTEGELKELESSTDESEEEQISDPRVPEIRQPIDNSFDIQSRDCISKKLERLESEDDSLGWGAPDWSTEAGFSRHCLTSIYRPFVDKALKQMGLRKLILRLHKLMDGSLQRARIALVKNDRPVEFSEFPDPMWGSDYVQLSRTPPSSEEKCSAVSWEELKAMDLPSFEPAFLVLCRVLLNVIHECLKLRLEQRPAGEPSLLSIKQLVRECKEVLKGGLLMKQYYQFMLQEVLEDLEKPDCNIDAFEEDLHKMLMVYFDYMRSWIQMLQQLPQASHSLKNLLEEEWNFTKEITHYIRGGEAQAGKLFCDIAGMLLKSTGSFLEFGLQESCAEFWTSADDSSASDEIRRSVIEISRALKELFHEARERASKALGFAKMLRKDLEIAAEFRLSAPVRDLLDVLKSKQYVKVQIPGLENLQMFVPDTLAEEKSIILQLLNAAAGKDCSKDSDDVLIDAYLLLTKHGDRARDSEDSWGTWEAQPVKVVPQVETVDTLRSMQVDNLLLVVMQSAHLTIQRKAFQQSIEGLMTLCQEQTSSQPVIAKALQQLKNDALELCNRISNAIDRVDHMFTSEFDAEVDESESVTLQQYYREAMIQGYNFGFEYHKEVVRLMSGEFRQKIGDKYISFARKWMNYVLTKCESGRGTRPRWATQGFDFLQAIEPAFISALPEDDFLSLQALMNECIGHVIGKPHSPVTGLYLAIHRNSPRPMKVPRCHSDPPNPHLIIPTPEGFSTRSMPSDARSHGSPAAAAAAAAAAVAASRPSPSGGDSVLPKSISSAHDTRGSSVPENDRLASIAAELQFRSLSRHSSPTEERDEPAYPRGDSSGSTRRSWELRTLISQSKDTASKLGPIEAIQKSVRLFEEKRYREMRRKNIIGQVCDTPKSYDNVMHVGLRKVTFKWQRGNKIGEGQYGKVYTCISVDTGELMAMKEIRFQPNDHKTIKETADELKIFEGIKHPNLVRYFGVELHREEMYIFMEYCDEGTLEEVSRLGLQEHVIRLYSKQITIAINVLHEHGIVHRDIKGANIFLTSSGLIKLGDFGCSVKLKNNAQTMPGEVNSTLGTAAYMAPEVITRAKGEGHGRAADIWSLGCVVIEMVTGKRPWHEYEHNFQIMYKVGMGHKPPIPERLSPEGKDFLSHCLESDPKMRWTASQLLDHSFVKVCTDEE
UniProt O43318: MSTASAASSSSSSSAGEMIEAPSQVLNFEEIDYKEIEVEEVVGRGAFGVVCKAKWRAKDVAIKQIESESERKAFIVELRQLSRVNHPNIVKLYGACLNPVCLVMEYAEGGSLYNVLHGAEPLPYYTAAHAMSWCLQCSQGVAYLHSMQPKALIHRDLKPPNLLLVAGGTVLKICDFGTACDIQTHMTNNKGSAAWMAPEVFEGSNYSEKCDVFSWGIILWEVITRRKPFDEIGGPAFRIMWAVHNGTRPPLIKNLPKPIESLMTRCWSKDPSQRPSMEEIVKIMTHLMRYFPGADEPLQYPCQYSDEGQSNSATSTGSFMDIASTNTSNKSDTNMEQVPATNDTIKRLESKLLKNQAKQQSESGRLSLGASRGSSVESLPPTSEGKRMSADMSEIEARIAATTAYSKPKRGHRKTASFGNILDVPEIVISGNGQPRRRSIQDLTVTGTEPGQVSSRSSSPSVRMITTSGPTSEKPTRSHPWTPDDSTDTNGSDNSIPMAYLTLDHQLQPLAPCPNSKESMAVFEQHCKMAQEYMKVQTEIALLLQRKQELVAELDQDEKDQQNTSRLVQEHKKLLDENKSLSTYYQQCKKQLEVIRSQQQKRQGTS
UniProt Q3MHD2: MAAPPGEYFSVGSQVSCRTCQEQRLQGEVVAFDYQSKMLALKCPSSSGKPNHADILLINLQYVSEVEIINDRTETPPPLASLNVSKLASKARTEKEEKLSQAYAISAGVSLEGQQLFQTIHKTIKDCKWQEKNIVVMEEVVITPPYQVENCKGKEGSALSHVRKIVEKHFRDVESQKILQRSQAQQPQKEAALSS
UniProt P27448: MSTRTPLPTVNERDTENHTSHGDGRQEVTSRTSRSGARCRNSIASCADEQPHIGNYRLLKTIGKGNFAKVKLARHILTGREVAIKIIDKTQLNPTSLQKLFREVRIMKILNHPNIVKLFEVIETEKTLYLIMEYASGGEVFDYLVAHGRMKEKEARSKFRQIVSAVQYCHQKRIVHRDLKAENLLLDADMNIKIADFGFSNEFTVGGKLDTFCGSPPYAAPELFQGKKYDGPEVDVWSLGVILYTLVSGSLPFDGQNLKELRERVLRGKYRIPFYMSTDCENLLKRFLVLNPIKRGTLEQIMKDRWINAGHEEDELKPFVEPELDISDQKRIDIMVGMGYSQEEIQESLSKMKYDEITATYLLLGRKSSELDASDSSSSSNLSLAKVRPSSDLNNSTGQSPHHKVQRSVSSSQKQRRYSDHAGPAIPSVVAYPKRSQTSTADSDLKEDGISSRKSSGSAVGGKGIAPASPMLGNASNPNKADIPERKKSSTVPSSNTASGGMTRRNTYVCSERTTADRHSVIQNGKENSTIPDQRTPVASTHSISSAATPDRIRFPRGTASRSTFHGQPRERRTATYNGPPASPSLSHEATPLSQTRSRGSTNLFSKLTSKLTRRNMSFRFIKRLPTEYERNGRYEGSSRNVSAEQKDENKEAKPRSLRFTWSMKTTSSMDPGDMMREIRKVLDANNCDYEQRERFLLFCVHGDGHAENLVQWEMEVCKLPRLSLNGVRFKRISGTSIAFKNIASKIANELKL
UniProt Q14566: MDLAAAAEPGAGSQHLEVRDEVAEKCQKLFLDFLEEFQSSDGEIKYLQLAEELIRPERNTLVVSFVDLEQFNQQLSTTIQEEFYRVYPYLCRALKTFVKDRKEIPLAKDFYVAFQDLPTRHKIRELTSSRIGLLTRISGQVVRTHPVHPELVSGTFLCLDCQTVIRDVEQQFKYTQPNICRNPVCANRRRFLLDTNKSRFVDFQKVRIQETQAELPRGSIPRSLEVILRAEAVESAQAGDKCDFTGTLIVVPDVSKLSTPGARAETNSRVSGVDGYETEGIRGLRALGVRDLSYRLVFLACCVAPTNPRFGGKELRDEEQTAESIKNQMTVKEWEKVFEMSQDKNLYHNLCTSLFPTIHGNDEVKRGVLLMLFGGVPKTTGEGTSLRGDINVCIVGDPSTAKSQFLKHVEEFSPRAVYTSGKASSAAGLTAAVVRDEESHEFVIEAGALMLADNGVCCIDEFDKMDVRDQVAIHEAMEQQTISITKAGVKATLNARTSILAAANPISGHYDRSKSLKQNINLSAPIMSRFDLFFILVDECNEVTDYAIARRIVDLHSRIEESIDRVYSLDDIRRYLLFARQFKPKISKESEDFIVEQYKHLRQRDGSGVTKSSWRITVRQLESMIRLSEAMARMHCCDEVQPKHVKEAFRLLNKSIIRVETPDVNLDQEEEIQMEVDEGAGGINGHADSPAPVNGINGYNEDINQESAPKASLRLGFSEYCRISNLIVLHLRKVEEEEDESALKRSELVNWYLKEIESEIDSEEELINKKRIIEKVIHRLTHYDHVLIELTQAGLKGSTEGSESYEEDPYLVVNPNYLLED
UniProt Q9BRK4: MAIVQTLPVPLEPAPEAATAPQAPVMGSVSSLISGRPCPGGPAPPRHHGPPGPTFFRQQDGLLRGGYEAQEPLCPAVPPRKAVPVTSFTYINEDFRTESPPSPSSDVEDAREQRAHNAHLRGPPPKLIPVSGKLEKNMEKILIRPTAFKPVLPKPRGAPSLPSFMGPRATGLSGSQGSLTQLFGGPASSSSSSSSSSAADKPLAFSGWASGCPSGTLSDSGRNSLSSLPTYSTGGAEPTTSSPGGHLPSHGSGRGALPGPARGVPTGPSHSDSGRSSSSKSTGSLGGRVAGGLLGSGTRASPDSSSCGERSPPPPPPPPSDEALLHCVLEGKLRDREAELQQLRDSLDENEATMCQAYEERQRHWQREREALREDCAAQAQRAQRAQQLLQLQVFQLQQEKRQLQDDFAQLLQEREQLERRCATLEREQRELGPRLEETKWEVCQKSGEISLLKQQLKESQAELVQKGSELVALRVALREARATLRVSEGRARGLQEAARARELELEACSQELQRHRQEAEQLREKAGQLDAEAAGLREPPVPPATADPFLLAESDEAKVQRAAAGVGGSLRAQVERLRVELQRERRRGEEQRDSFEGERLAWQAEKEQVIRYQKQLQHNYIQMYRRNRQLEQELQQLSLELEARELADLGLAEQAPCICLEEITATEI
UniProt Q15013: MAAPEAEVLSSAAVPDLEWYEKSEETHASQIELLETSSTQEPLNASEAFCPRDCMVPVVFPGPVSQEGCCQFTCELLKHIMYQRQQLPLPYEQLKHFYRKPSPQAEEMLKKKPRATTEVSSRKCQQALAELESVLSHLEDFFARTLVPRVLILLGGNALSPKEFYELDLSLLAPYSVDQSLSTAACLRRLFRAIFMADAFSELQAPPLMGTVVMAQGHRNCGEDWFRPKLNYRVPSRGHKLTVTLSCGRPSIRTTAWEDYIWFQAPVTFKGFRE

Compound in one experiment: ClCC(=O)N[C@H]1CCCc2ccccc12
Description: log2 mean competition ratio of IA-DTB cysteine labelling (DMSO/compound) (log2 ratio); higher = stronger cysteine engagement by compound. As to conditions: 50 µM; treatment time: 4 h; cell line lysate: HEK293T. How it is done: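 IA-DTB competitive cysteine chemoproteomics in HEK293T RIPA lysate. Lysates were treated with compound 29 or 30 at 50 or 200 µM for 4 h, then IA-DTB (500 µM, 1 h), trypsin-digested, NeutrAvidin-enriched and analysed by diaPASEF. Competition ratio = intensity DMSO / intensity compound (n=4 treated, n=64 DMSO); binding: mean log2 CR ≥ 1 and p ≤ 0.05 plus QC filters. Target is the cysteine site.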
In the case of LRRC45 C385 (UniProt Q96CN5), the “log2 mean competition ratio” value turned out to be 0.144.
Same read-out and setting: the same measure for MBIP C243 (UniProt Q9NS73): -0.179.
On the same count and under the same terms, then MARS1 C38, with -0.0564; and MBOAT2 C146 (UniProt Q6ZWT7), with -0.451.
The same measure, in the same setting: the same measure for MACF1 C6646: -0.145; for MASTL C317 (UniProt Q96GX5): 1.5; for LRRC1 C224: -0.181.
Turning to MAP3K4 C218 (UniProt Q9Y6R4), the “log2 mean competition ratio” value was -0.0244.
The same measure, in the same setting: the same measure for MAP3K7 C588 (UniProt O43318): -0.298; for LSM12 C17 (UniProt Q3MHD2): -0.434.
Still for that read-out and setting: the same measure for MARK2 C166: 0.4; for LRRC8C C165: -0.406; for MAP2K1 C277 (UniProt Q02750): 0.743.
The same measure, in the same setting: then LTN1 C237 (UniProt O94822), with -0.157; and MARK3 C688 (UniProt P27448), with -0.17.
MAP2K2 C384 (UniProt P36507): the “log2 mean competition ratio” value amounted to 0.075.
Same read-out and setting: the same measure for MCM6 C180 (UniProt Q14566): 0.198.
Consider LZTS2 C355 (UniProt Q9BRK4), for which the “log2 mean competition ratio” value was 0.206.
On the same count and under the same terms, the same measure for LRRFIP1 C750 (UniProt Q32MZ4): 0.0449; for MAD2L1BP C221 (UniProt Q15013): 0.00755.

The same experiment, now with this note: 200 µM; treatment time: 4 h; cell line lysate: HEK293T.
Regarding LRRC45 C385 (UniProt Q96CN5), the “log2 mean competition ratio” value was 0.0192.
Same read-out and setting: the same measure for MBIP C243 (UniProt Q9NS73): 0.391; for MARS1 C38: -0.277.
With MBOAT2 C146 (UniProt Q6ZWT7), the “log2 mean competition ratio” value is -0.0162.
On the same count and under the same terms, then MACF1 C6646, with 0.0917; and MASTL C317 (UniProt Q96GX5), with 0.25; and LRRC1 C224, with -0.144.
Still for that read-out and setting: then MAP3K4 C218 (UniProt Q9Y6R4), with 0.341.
Take MAP3K7 C588 (UniProt O43318): the “log2 mean competition ratio” value was 0.143.
The same measure, in the same setting: then LSM12 C17 (UniProt Q3MHD2), with -0.0106; and MARK2 C166, with -0.0407.
Still for that read-out and setting: then LRRC8C C165, with -0.181.
The same measure, in the same setting: the same measure for MAP2K1 C277 (UniProt Q02750): -0.136.
For the target LTN1 C237 (UniProt O94822), the “log2 mean competition ratio” value is -0.215.
Still for that read-out and setting: then MARK3 C688 (UniProt P27448), with -0.046; and MAP2K2 C384 (UniProt P36507), with -0.0255.
Same read-out and setting: then MCM6 C180 (UniProt Q14566), with 0.0257; and LZTS2 C355 (UniProt Q9BRK4), with 0.395.
Same read-out and setting: the same measure for LRRFIP1 C750 (UniProt Q32MZ4): 0.144; for MAD2L1BP C221 (UniProt Q15013): 0.119.

These data come from the supplement of paper PMC11732987, “Enantioselective OTUD7B fragment discovery through chemoproteomics screening and high-throughput optimisation” (Communications Chemistry, 2025).
